# Source: PubChem BioAssay (EPA / NIEHS)
# Chains of the proteins cited; added tags and fusions are not shown.
# UniProt P03372, whole entry, looked up: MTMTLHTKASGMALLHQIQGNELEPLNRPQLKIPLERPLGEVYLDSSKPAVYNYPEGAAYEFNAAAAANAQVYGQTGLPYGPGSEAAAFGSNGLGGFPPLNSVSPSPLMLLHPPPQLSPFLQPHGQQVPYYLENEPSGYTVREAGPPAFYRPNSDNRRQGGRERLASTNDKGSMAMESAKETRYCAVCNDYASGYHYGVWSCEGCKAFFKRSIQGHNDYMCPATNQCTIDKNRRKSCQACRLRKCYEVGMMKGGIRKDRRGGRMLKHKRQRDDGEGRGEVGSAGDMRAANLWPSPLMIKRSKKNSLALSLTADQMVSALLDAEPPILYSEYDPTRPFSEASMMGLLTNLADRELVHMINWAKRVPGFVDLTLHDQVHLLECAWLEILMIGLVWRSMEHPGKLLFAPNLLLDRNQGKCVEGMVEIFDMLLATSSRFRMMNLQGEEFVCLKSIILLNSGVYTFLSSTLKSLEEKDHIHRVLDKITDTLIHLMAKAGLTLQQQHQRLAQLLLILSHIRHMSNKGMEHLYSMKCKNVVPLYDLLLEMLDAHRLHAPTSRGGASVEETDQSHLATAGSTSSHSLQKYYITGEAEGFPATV
# Inconclusive results, whose numbers are uncertain, are shown with a selection of clear calls. For some assays here: Potencies beside an inconclusive call are fits to weak or partial responses and may not hold up. Calls of active or inactive are those of the source. How the source made its calls: active means hit-call score of the fitted dose curve at least 0.9, where 1 is the maximum; inconclusive means response in the unintended direction; inactive means score below 0.9.
# Columns and labels:
# [1] = target: Estrogen receptor (Homo sapiens) (UniProt P03372); assay: CCTE_Deisenroth_AIME_384WELL_LUC_Active: CCTE's 384-well Estrogen Receptor Transactivation Assay with AIME metabolic competence (ERTA luciferase; metabolism positive), Deisenroth Lab (AID 2284030)
# Procedure, shortened: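 Chemicals (10-point, 0.002-200 uM) were first incubated 2 hours with alginate-immobilized induced male Sprague Dawley rat liver S9. The conditioned medium was then applied to VM7Luc4E2 cells for 24 hours, with ER luciferase induction read by luminescence relative to 17beta-estradiol.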
# [2] = CCTE_Deisenroth_AIME_384WELL_CTox_Active: Cytotoxicity Assessment (CTOX) in CCTE's 384-well Estrogen Receptor Transactivation Assay with AIME metabolic competence (metabolism positive), Deisenroth Lab (AID 2284037);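 further: chemicals first conditioned 2 h by alginate-bound induced rat liver S9 before cells; activity means signal loss indicating cell death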
# Procedure, shortened: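 Chemicals pre-incubated 2 hours with alginate-immobilised phenobarbital/beta-naphthoflavone-induced male Sprague Dawley rat liver S9, then conditioned medium applied 24 hour to VM7Luc4E2 cells. Viability by fluorogenic protease substrate; 10-point series 0.002 - 200 uM.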
# [3] = CCTE_Deisenroth_AIME_384WELL_CTox_Inactive: Cytotoxicity Assessment (CTOX) in CCTE's 384-well Estrogen Receptor Transactivation Assay without AIME metabolic competence (metabolism negative), Deisenroth Lab (AID 2284039);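 further: cell viability via live-cell protease substrate cleaved to fluorescent probe; cells exposed 24 h to medium preincubated 2 h with alginate-water beads without S9; loss of fluorescence signal means loss of viability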
# Procedure, shortened: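 VM7Luc4E2 human breast cells received conditioned medium from a 2 h incubation of chemical with alginate-water microspheres (no S9), then were exposed 24 h. Viability was read as protease-substrate cleavage to a fluorescent probe; loss of signal was fitted bidirectionally over 0.002–200 uM.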
# [4] = target: Estrogen receptor (Homo sapiens) (UniProt P03372); assay: CCTE_Deisenroth_AIME_384WELL_LUC_Inactive: CCTE's 384-well Estrogen Receptor Transactivation Assay without AIME metabolic competence (ERTA luciferase; metabolism negative), Deisenroth Lab (AID 2284038);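 further: hits raise estrogen receptor luciferase signal so potencies reflect agonists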
# Procedure, shortened: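 VM7Luc4E2 ER transactivation, luciferase bioluminescence after 24 h, using medium pre-incubated 2 h with S9-free alginate microspheres. Concentrations 0.002–200 uM; gain of signal fitted relative to 17beta-estradiol.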
# [5] = CCTE_Shafer_MEA_dev_bursting_electrodes_number: CCTE's Neural Network Formation Assay for Number of Bursting Electrodes, Shafer Lab (AID 2284043);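 on AC50: potency is for loss of bursting electrodes relative to DMSO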
# Procedure, shortened: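 Rat cortical primary neurons, 48-well MEA, 16 electrodes/well; dosing DIV 0–12, re-dosed with full media change DIV 5, 9. Recordings DIV 5/7/9/12, AxIS adaptive spike detector; bursting electrode = ≥1 burst/2 min. AUC across days; loss of signal vs DMSO.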
# [6] = CCTE_Shafer_MEA_acute_AB: CCTE's Alamar Blue Assay for Cytotoxicity in the Neural Acute Assay, Shafer Lab (AID 2284069);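 further: active compounds lower the viability signal compared with DMSO wells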
# Procedure, shortened: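 Read-out: resazurin fluorescence (ex 544, em 590 nm) after CTB reagent at 1:6 dilution in fresh media. Cells: primary rat cortical neuron networks, DIV 13 or 15, chemically exposed on MEA plates; DMSO as negative control/baseline.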
# [7] = CCTE_Shafer_MEA_dev_active_electrodes_number: CCTE's Neural Network Formation Assay for Number of Active Electrodes, Shafer Lab (AID 2284040)
# Procedure, shortened: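 Counts electrodes per well firing at least 5 spikes/min, recorded on days 5, 7, 9 and 12 in rat cortical cultures dosed continuously from plating (treatment refreshed DIV 5, 9). Value is the area under the curve over recordings, fitted downward relative to DMSO.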
# [8] = CCTE_Shafer_MEA_dev_LDH: CCTE's Lactate Dehydrogenase Assay for Cytotoxicity in the Neural Network Formation Assay, Shafer Lab (AID 2284068);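 further: exposure for twelve days from plating with re-dosing on DIV 5 and 9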
# Procedure, shortened: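 Rat cortical primary neurons, MEA culture; dosing day 0–12, full medium plus compound exchange DIV 5, 9. Read-out: LDH enzyme activity, spectrophotometric. DMSO = negative control/baseline; signal loss → cytotoxicity.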
# DIO2 (gene 1734) = assay: CCTE_GLTED_hDIO2: CCTE's human Deiodinase 2 (DIO2) Inhibition Assay, Great Lakes Toxicology and Ecology Division (GLTED) Lab (AID 2284050)
# Procedure, shortened: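 Iodide released by human deiodinase 2 over 3 h with test chemical, measured spectrophotometrically via Sandell-Kolthoff cerium/arsenic reaction. Run n=3; inhibition referenced to DMSO.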
# DIO3 (gene 1735) = assay: CCTE_GLTED_hDIO3: CCTE's human Deiodinase 3 (DIO3) Inhibition Assay, Great Lakes Toxicology and Ecology Division (GLTED) Lab (AID 2284055);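 further: potency is for inhibition seen as loss of released iodide signal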
# Procedure, shortened: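 Inhibition is read as reduced iodide release, measured spectrophotometrically by the Sandell-Kolthoff cerium/arsenic reaction. Adenovirus-expressed human DIO3 enzyme is exposed to chemical for 3 h, n=3 plates. Iodinated chemicals, nitrite, iron or thiocyanate may interfere.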
smiles,measurement,setting,value
Nc1ccc(Nc2ccccc2)cc1,AC50,[1],active: 114 µM
same,outcome,[2],inactive
same,AC50,[3],active: 74.6 µM
O=C(C=Cc1ccccc1)OCc1ccccc1,outcome,[2],inactive
same,AC50,[4],active: 26.3 µM
CCCCCCCCCCCCc1ccc(O)cc1,AC50,[2],active: 72.1 µM
same,AC50,[4],active: 1.01 µM
same,AC50,[3],active: 86.1 µM
CC1=NN(c2cc(S(=O)(=O)O)ccc2Cl)C(=O)C1N=Nc1ccccc1 (stereo not drawn),AC50,[2],inconclusive: 0.0002 µM
CN(C)c1ccc(C(=N)c2ccc(N(C)C)cc2)cc1,AC50,[2],active: 100 µM
same,AC50,[4],inconclusive: 26.5 µM
same,AC50,[3],active: 31.1 µM
CC(C)=CCCC(C)=CC#N,AC50,[2],inconclusive: 0.0002 µM
same,AC50,[3],inconclusive: 0.0002 µM
CC1=NN(c2ccc(S(=O)(=O)O)cc2)C(=O)C1N=Nc1ccccc1 (stereo not drawn),AC50,[2],active: 159 µM
CC(C)c1cc(C(C)C)cc(C(C)C)c1,outcome,[2],inactive
CCCCCCCCCCCCCCCCCCOS(=O)(=O)O,outcome,[2],inactive
C[C@]12C=CC(=O)C=C1CC[C@@H]1[C@@H]2C(=O)C[C@@]2(C)[C@H]1CC[C@]2(O)C(=O)CO,outcome,[4],inactive
CN(C)CCCN,outcome,[3],inactive
CO[Si](OC)(OC)c1ccccc1,AC50,[3],inconclusive: 0.0002 µM
OC1CCCC1,outcome,[4],inactive
same,outcome,[3],inactive
O=c1[nH]cc(F)c(=O)[nH]1,AC50,[2],inconclusive: 100 µM
same,outcome,[3],inactive
same,AC50,[5],active: 1.39 µM
O=C1C(N(CO)C(=O)NCO)N(CO)C(=O)N1CO (stereo not drawn),outcome,[4],inactive
CCC(=O)OC(C)(C)C1CC=C(C)CC1 (stereo not drawn),AC50,[2],inconclusive: 0.0002 µM
same,AC50,[3],inconclusive: 0.0002 µM
C=CC(=O)NC(C)(C)CS(=O)(=O)O,outcome,[3],inactive
CO[Si](C)(C)OC,AC50,[2],inconclusive: 100 µM
same,AC50,[3],inconclusive: 0.0002 µM
CC(=O)CC(=O)N(C)C,outcome,[4],inactive
c1ccc2c(c1)-c1cccc3c1c-2cc1ccccc13,AC50,[3],active: 19.8 µM
C=C1C2CCC(C2)C1(C)C (stereo not drawn),outcome,[4],inactive
O=S1(=O)OC(c2ccc(O)cc2)(c2ccc(O)cc2)c2ccccc21,outcome,[3],inactive
CCCCCCCCCCCCCCCCO,AC50,[3],inconclusive: 0.000274 µM
CCCCCCCCCCCCCC(=O)O,outcome,[3],inactive
CC(CCC(=O)O)(c1ccc(O)cc1)c1ccc(O)cc1,AC50,[4],active: 71.4 µM
CCCOC(=O)c1cc(O)c(O)c(O)c1,outcome,[3],inactive
CCCCCCCCC(=O)O,outcome,[4],inactive
same,outcome,[3],inactive
CCN(CCC#N)c1ccc(N=Nc2c(Cl)cc([N+](=O)[O-])cc2Cl)cc1,AC50,[3],active: 100 µM
CCCCCc1ccc(Cl)cc1,outcome,[2],inactive
same,AC50,[3],inconclusive: 0.0002 µM
CCCCCCCCCCCCOC(=O)c1cc(O)c(O)c(O)c1,outcome,[2],inactive
same,AC50,[3],active: 128 µM
O=S(=O)(O)c1ccccc1C=Cc1ccc(-c2ccc(C=Cc3ccccc3S(=O)(=O)O)cc2)cc1,AC50,[2],inconclusive: 30.7 µM
same,AC50,[3],inconclusive: 55 µM
c1ccc2occc2c1,outcome,[2],inactive
same,outcome,[3],inactive
same,outcome,[6],inactive
CC(=O)Oc1c(C)c(C)c2c(c1C)CC[C@@](C)(CCC[C@H](C)CCC[C@H](C)CCCC(C)C)O2,AC50,[3],inconclusive: 0.000198 µM
O=c1c(O)c(-c2ccc(O)cc2O)oc2cc(O)cc(O)c12,AC50,[2],active: 100 µM
same,AC50,[3],active: 146 µM
CC(C)N(c1ccccc1)C(C)C,outcome,[3],inactive
COC(=O)CCC(=O)OC,AC50,[2],inconclusive: 0.000765 µM
same,AC50,[3],inconclusive: 0.000215 µM
CCCC(=O)OCC,AC50,[2],inconclusive: 0.00174 µM
same,AC50,[3],inconclusive: 0.0002 µM
CCCCC(CC)C(=O)OCCOCCOCCOC(=O)C(CC)CCCC (stereo not drawn),AC50,[2],inconclusive: 0.0002 µM
same,AC50,[3],inconclusive: 1.9 µM
same,AC50,[6],inconclusive: 20 µM
CC#C[C@]1(O)CC[C@H]2[C@@H]3CCC4=CC(=O)CCC4=C3[C@@H](c3ccc(N(C)C)cc3)C[C@@]21C,outcome,[2],inactive
same,outcome,[6],inactive
Cc1ccc(C(C)(C)C)c(O)c1,outcome,[2],inactive
same,outcome,[3],inactive
same,AC50,[6],inconclusive: 20 µM
CNCc1cc(F)ccc1Oc1ccc(Cl)c(Cl)c1,AC50,[4],inconclusive: 100 µM
same,AC50,[3],active: 19.8 µM
O=c1[nH]sc2ccccc12,AC50,[3],inconclusive: 0.000587 µM
OCCOCCOCCOCCO,AC50,[4],active: 0.00171 µM
C1CCCNCC1,outcome,[3],inactive
Cc1cn([C@H]2C[C@H](N=[N+]=[N-])[C@@H](CO)O2)c(=O)[nH]c1=O,AC50,[2],inconclusive: 100 µM
same,AC50,[6],inconclusive: 20 µM
CC1(C)[C@@H]2CC[C@@]1(C)C(=O)C2,AC50,[2],inconclusive: 0.0002 µM
same,AC50,[3],inconclusive: 0.778 µM
CS(=O)(=O)OCCCCOS(C)(=O)=O,AC50,[2],inconclusive: 0.0002 µM
same,AC50,[3],inconclusive: 100 µM
same,outcome,[7],inactive
same,outcome,[5],inactive
same,AC50,[8],inconclusive: 0.897 nM
Cc1ccc(N/N=c2\c(=O)cc/c(=N/Nc3ccc(S(=O)(=O)O)cc3)c2=O)c(C)c1,outcome,DIO2 (gene 1734),inactive
O=C(c1ccc(OCCN2CCCCC2)cc1)c1c(-c2ccc(O)cc2)sc2cc(O)ccc12,AC50,DIO3 (gene 1735),inconclusive: 504 nM

# Looked up one by one from above:
smiles,measurement,setting,value
CCCCCCCCCCCCOC(=O)c1cc(O)c(O)c(O)c1,outcome,[2],inactive
CC(CCC(=O)O)(c1ccc(O)cc1)c1ccc(O)cc1,AC50,[4],active: 71.4 µM
CC(C)N(c1ccccc1)C(C)C,outcome,[3],inactive
CCCCCCCCCCCCCCCCO,AC50,[3],inconclusive: 0.000274 µM

# An excerpt of these results, as tab-separated lines.
smiles	measurement	setting	value
CN(C)c1ccc(C(=N)c2ccc(N(C)C)cc2)cc1	AC50	[4]	inconclusive: 26.5 µM
same	AC50	[3]	active: 31.1 µM
